These are yes or no findings as the source states them, for the method shown. Some results given as binding are weak or reduced against the parent protein; the word gives no strength. Values belong to the binder of their own block, whether it stands above or below them.
Columns and labels:
[1] = molecular target: TRIM72^ΔRING (84-477) (human) (UniProt Q6ZMU5); assay: AUC; sedimentation velocity of the RING deletion, tetramer fraction (Supplementary Fig. 5h, i); dimers to tetramer; both purified
[2] = molecular target: TRIM72 SPRY (278-477) (human) (UniProt Q6ZMU5); assay: AUC + SEC-MALS; deletion constructs of TRIM72 in solution; 20 mM Tris-HCl pH 8.0, 200 mM NaCl, 0.3 mM TCEP; both purified
TRIM72 I95A (human) = TRIM72 I95A (human) (UniProt Q6ZMU5); assay: SEC-MALS; series of protein concentrations; Superdex 200 increase, 20 mM Tris-HCl pH 8.0, 200 mM NaCl, 0.3 mM TCEP; dimers to tetramer; both purified
[3] = molecular target: full-length human TRIM72 protein (2-477) (human) (UniProt Q6ZMU5); assay: as above

binding [1]: binds weakly
B1: TRIM72^ΔRING (84-477) (domain or fragment, human, UniProt Q6ZMU5-1 84-477, looked up)
chain: GHCEEHLDPLSIYCEQDRALVCGVCASLGSHRGHRLLPAAEAHARLKTQLPQQKLQLQEACMRKEKSVAVLEHQLVEVEETVRQFRGAVGEQLGKMRVFLAALEGSLDREAERVRGEAGVALRRELGSLNSYLEQLRQMEKVLEEVADKPQTEFLMKYCLVTSRLQKILAESPPPARLDIQLPIISDDFKFQVWRKMFRALMPALEELTFDPSSAHPSLVVSSSGRRVECSEQKAPPAGEDPRQFDKAVAVVAHQQLSEGEHYWEVDVGDKPRWALGVIAAEAPRRGRLHAVPSQGLWLLGLREGKILEAHVEAKEPRALRSPERRPTRIGLYLSFGDGVLSFYDASDADALVPLFAFHERLPRPVYPFFDVCWHDKGKNAQPLLLVGPEGAEA
notes: TRIM72, human, residues 84-477 (B-box, coiled-coil, SPRY); also called RING deletion; source: E. coli Rosetta (DE3), purified; not shown: His-Sumo, N-terminal, cleaved

binding (TRIM72 I95A (human)): binds weakly
B3: TRIM72 I95A (natural protein, human, UniProt Q6ZMU5-1 2-477, looked up)
chain: SAAPGLLHQELSCPLCLQLFDAPVTAECGHSFCRACLGRVAGEPAADGTVLCPCCQAPTRPQALSTNLQLARLVEGLAQVPQGHCEEHLDPLSAYCEQDRALVCGVCASLGSHRGHRLLPAAEAHARLKTQLPQQKLQLQEACMRKEKSVAVLEHQLVEVEETVRQFRGAVGEQLGKMRVFLAALEGSLDREAERVRGEAGVALRRELGSLNSYLEQLRQMEKVLEEVADKPQTEFLMKYCLVTSRLQKILAESPPPARLDIQLPIISDDFKFQVWRKMFRALMPALEELTFDPSSAHPSLVVSSSGRRVECSEQKAPPAGEDPRQFDKAVAVVAHQQLSEGEHYWEVDVGDKPRWALGVIAAEAPRRGRLHAVPSQGLWLLGLREGKILEAHVEAKEPRALRSPERRPTRIGLYLSFGDGVLSFYDASDADALVPLFAFHERLPRPVYPFFDVCWHDKGKNAQPLLLVGPEGAEA
notes: TRIM72, human, residues 2-477, point mutant in the B-box; also called I95A mutant; source: E. coli Rosetta (DE3), purified; not shown: His-Sumo, N-terminal, cleaved

Second part, the binder before the results:

B2: TRIM72 SPRY (278-477) (domain or fragment, UniProt Q6ZMU5-1 278-477)
chain: RKMFRALMPALEELTFDPSSAHPSLVVSSSGRRVECSEQKAPPAGEDPRQFDKAVAVVAHQQLSEGEHYWEVDVGDKPRWALGVIAAEAPRRGRLHAVPSQGLWLLGLREGKILEAHVEAKEPRALRSPERRPTRIGLYLSFGDGVLSFYDASDADALVPLFAFHERLPRPVYPFFDVCWHDKGKNAQPLLLVGPEGAEA
binding [2]: no binding

B4: full-length human TRIM72 protein (2-477) (natural protein, UniProt Q6ZMU5-1 2-477, looked up)
chain: SAAPGLLHQELSCPLCLQLFDAPVTAECGHSFCRACLGRVAGEPAADGTVLCPCCQAPTRPQALSTNLQLARLVEGLAQVPQGHCEEHLDPLSIYCEQDRALVCGVCASLGSHRGHRLLPAAEAHARLKTQLPQQKLQLQEACMRKEKSVAVLEHQLVEVEETVRQFRGAVGEQLGKMRVFLAALEGSLDREAERVRGEAGVALRRELGSLNSYLEQLRQMEKVLEEVADKPQTEFLMKYCLVTSRLQKILAESPPPARLDIQLPIISDDFKFQVWRKMFRALMPALEELTFDPSSAHPSLVVSSSGRRVECSEQKAPPAGEDPRQFDKAVAVVAHQQLSEGEHYWEVDVGDKPRWALGVIAAEAPRRGRLHAVPSQGLWLLGLREGKILEAHVEAKEPRALRSPERRPTRIGLYLSFGDGVLSFYDASDADALVPLFAFHERLPRPVYPFFDVCWHDKGKNAQPLLLVGPEGAEA
notes: TRIM72 (MG53), human, residues 2-477; open reading frame of GenBank NM_001008274.4; A dimer in solution at low concentration; the RING domain is not seen in the crystal structure although the full-length protein was crystallised; also called MG53; Tripartite Motif Protein 72; source: E. coli Rosetta (DE3), purified (nickel column, Source Q, Superdex 200 increase); not shown: His-Sumo, N-terminal, …
binding [3]: binds weakly

Source: article PMC10030467 (Nature Communications, 2023)
